# Results as given in the supplement of paper PMC8728848.
# The list shows a part of the results.
# Tests used:
# Assay in all cases: glycan array binding signal (z-score within array); higher = stronger binding
# Conditions in all cases: glycan notation: IUPAC condensed, linker removed
# [1] = molecular target: GlcNAc(b1-2)[GlcNAc(b1-6)]Man(a1-6)[GlcNAc(b1-4)][GlcNAc(b1-2)Man(a1-3)]Man(b1-4)GlcNAc(b1-4)GlcNAc
# Method in brief: (§1)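 The binding signal is a Z-score computed within each array. Data were drawn from 3228 arrays in the Consortium for Functional Glycomics database, restricted to those with a known protein sequence. Scores were averaged over arrays of the same protein sequence at different concentrations or buffers, and over linkers, and negative values can be taken as non-binding.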
# GlcNAc(b1-3)Fuc = molecular target: GlcNAc(b1-3)Fuc
# Method in brief: as §1
# GlcNAc(b1-3)Gal = molecular target: GlcNAc(b1-3)Gal
# Method in brief: as §1
# [2] = molecular target: GlcNAc(b1-3)Gal(b1-3)GalNAc
# Method in brief: as §1
# GlcNAc(b1-3)Gal(b1-4)Glc = molecular target: GlcNAc(b1-3)Gal(b1-4)Glc
# Method in brief: as §1
# [3] = molecular target: GlcNAc(b1-3)Gal(b1-4)GlcNAc
# Method in brief: as §1
# [4] = molecular target: GlcNAc(b1-3)Gal(b1-4)GlcNAc(b1-2)Man(a1-3)[GlcNAc(b1-3)Gal(b1-4)GlcNAc(b1-2)Man(a1-6)]Man(b1-4)GlcNAc(b1-4)GlcNAc
# Method in brief: as §1
# [5] = molecular target: GlcNAc(b1-3)Gal(b1-4)GlcNAc(b1-2)Man(a1-3)[GlcNAc(b1-3)Gal(b1-4)GlcNAc(b1-2)Man(a1-6)]Man(b1-4)GlcNAc(b1-4)[Fuc(a1-6)]GlcNAc
# Method in brief: as §1
# [6] = molecular target: GlcNAc(b1-3)Gal(b1-4)GlcNAc(b1-2)[GlcNAc(b1-3)Gal(b1-4)GlcNAc(b1-6)]Man(a1-6)[GlcNAc(b1-3)Gal(b1-4)GlcNAc(b1-2)Man(a1-3)]Man(b1-4)GlcNAc(b1-4)GlcNAc
# Method in brief: as §1
# [7] = molecular target: GlcNAc(b1-3)Gal(b1-4)GlcNAc(b1-3)Gal(b1-4)GlcNAc
# Method in brief: as §1
# [8] = molecular target: GlcNAc(b1-3)Gal(b1-4)GlcNAc(b1-3)Gal(b1-4)GlcNAc(b1-2)Man(a1-3)[GlcNAc(b1-3)Gal(b1-4)GlcNAc(b1-3)Gal(b1-4)GlcNAc(b1-2)Man(a1-6)]Man(b1-4)GlcNAc(b1-4)GlcNAc
# Method in brief: as §1
# [9] = molecular target: GlcNAc(b1-3)Gal(b1-4)GlcNAc(b1-3)Gal(b1-4)GlcNAc(b1-2)Man(a1-3)[GlcNAc(b1-3)Gal(b1-4)GlcNAc(b1-3)Gal(b1-4)GlcNAc(b1-2)Man(a1-6)]Man(b1-4)GlcNAc(b1-4)[Fuc(a1-6)]GlcNAc
# Method in brief: as §1
# [10] = molecular target: GlcNAc(b1-3)Gal(b1-4)GlcNAc(b1-3)Gal(b1-4)GlcNAc(b1-2)[GlcNAc(b1-3)Gal(b1-4)GlcNAc(b1-3)Gal(b1-4)GlcNAc(b1-6)]Man(a1-6)[GlcNAc(b1-3)Gal(b1-4)GlcNAc(b1-3)Gal(b1-4)GlcNAc(b1-2)Man(a1-3)]Man(b1-4)GlcNAc(b1-4)[Fuc(a1-6)]GlcNAc
# Method in brief: as §1
# [11] = molecular target: GlcNAc(b1-3)Gal(b1-4)GlcNAc(b1-3)Gal(b1-4)GlcNAc(b1-3)Gal(b1-4)GlcNAc(b1-2)Man(a1-3)[GlcNAc(b1-3)Gal(b1-4)GlcNAc(b1-3)Gal(b1-4)GlcNAc(b1-3)Gal(b1-4)GlcNAc(b1-2)Man(a1-6)]Man(b1-4)GlcNAc(b1-4)GlcNAc
# Method in brief: as §1
# [12] = molecular target: GlcNAc(b1-3)Gal(b1-4)GlcNAc(b1-3)Gal(b1-4)GlcNAc(b1-3)Gal(b1-4)GlcNAc(b1-2)Man(a1-3)[GlcNAc(b1-3)Gal(b1-4)GlcNAc(b1-3)Gal(b1-4)GlcNAc(b1-3)Gal(b1-4)GlcNAc(b1-2)Man(a1-6)]Man(b1-4)GlcNAc(b1-4)[Fuc(a1-6)]GlcNAc
# Method in brief: as §1
# [13] = molecular target: GlcNAc(b1-3)Gal(b1-4)GlcNAc(b1-3)Gal(b1-4)GlcNAc(b1-3)Gal(b1-4)GlcNAc(b1-2)[GlcNAc(b1-3)Gal(b1-4)GlcNAc(b1-3)Gal(b1-4)GlcNAc(b1-3)Gal(b1-4)GlcNAc(b1-6)]Man(a1-6)[GlcNAc(b1-3)Gal(b1-4)GlcNAc(b1-3)Gal(b1-4)GlcNAc(b1-3)Gal(b1-4)GlcNAc(b1-2)Man(a1-3)]Man(b1-4)GlcNAc(b1-4)[Fuc(a1-6)]GlcNAc
# Method in brief: as §1
# [14] = molecular target: GlcNAc(b1-3)Gal(b1-4)GlcNAc(b1-3)Gal(b1-4)GlcNAc(b1-3)Gal(b1-4)GlcNAc(b1-3)Gal(b1-4)GlcNAc(b1-2)Man(a1-3)[GlcNAc(b1-3)Gal(b1-4)GlcNAc(b1-3)Gal(b1-4)GlcNAc(b1-3)Gal(b1-4)GlcNAc(b1-3)Gal(b1-4)GlcNAc(b1-2)Man(a1-6)]Man(b1-4)GlcNAc(b1-4)GlcNAc
# Method in brief: as §1
# [15] = molecular target: GlcNAc(b1-3)Gal(b1-4)GlcNAc(b1-3)Gal(b1-4)GlcNAc(b1-3)Gal(b1-4)GlcNAc(b1-3)Gal(b1-4)GlcNAc(b1-2)Man(a1-3)[GlcNAc(b1-3)Gal(b1-4)GlcNAc(b1-3)Gal(b1-4)GlcNAc(b1-3)Gal(b1-4)GlcNAc(b1-3)Gal(b1-4)GlcNAc(b1-2)Man(a1-6)]Man(b1-4)GlcNAc(b1-4)[Fuc(a1-6)]GlcNAc
# Method in brief: as §1
# [16] = molecular target: GlcNAc(b1-3)Gal(b1-4)GlcNAc(b1-3)Gal(b1-4)GlcNAc(b1-3)Gal(b1-4)GlcNAc(b1-3)Gal(b1-4)GlcNAc(b1-2)[GlcNAc(b1-3)Gal(b1-4)GlcNAc(b1-3)Gal(b1-4)GlcNAc(b1-3)Gal(b1-4)GlcNAc(b1-3)Gal(b1-4)GlcNAc(b1-6)]Man(a1-6)[GlcNAc(b1-3)Gal(b1-4)GlcNAc(b1-3)Gal(b1-4)GlcNAc(b1-3)Gal(b1-4)GlcNAc(b1-3)Gal(b1-4)GlcNAc(b1-2)Man(a1-3)]Man(b1-4)GlcNAc(b1-4)[Fuc(a1-6)]GlcNAc
# Method in brief: as §1
binder,measurement,setting,value
OS9 (Arabidopsis thaliana) (protein) MRGSHHHHHHGMASMTGGQQMGRDLYDDDDKSRLQIFPAHLVGTFSRNNREPKYKIEFLPEDSPFHPGDNLESMVMLDKHGNRFLCYLPKEEKATSGWTSSQQNISTVMMETQQLVKLKTPDELLQPLSEKCLFRQEGWWSYEFCHQKYVRQLHVEDENKIVQEFFLGTFDPEATAAFNQTVSDASTDASQRYHSHVYTNGTTCDLTGSPREVEVRFVCAETRAMVTSITELSTCKYALTVQCPTLCKHPLFQLEKPVSHTIHCNAIPVEEDATRNKEEQAVDESPKMIADS,glycan array binding signal (z-score),[1],0.226
same,glycan array binding signal (z-score),GlcNAc(b1-3)Fuc,-0.426
same,glycan array binding signal (z-score),GlcNAc(b1-3)Gal,-0.546
same,glycan array binding signal (z-score),[2],0.065
same,glycan array binding signal (z-score),GlcNAc(b1-3)Gal(b1-4)Glc,-0.758
same,glycan array binding signal (z-score),[3],-0.947
same,glycan array binding signal (z-score),[4],-0.442
same,glycan array binding signal (z-score),[5],1.46
same,glycan array binding signal (z-score),[6],0.647
same,glycan array binding signal (z-score),[7],-1.17
same,glycan array binding signal (z-score),[8],0.616
same,glycan array binding signal (z-score),[9],-0.144
same,glycan array binding signal (z-score),[10],0.174
same,glycan array binding signal (z-score),[11],1.23
same,glycan array binding signal (z-score),[12],-0.875
same,glycan array binding signal (z-score),[13],1.19
same,glycan array binding signal (z-score),[14],-0.507
same,glycan array binding signal (z-score),[15],0.653
same,glycan array binding signal (z-score),[16],-0.274

# An excerpt of these results, as tab-separated lines.
binder	measurement	setting	value
OS9 (Arabidopsis thaliana) (protein) MRGSHHHHHHGMASMTGGQQMGRDLYDDDDKSRLQIFPAHLVGTFSRNNREPKYKIEFLPEDSPFHPGDNLESMVMLDKHGNRFLCYLPKEEKATSGWTSSQQNISTVMMETQQLVKLKTPDELLQPLSEKCLFRQEGWWSYEFCHQKYVRQLHVEDENKIVQEFFLGTFDPEATAAFNQTVSDASTDASQRYHSHVYTNGTTCDLTGSPREVEVRFVCAETRAMVTSITELSTCKYALTVQCPTLCKHPLFQLEKPVSHTIHCNAIPVEEDATRNKEEQAVDESPKMIADS	glycan array binding signal (z-score)	[10]	0.174
same	glycan array binding signal (z-score)	[11]	1.23
